Measured values reported in PMC5376975, “Structural studies of RFCC tf18 reveal a novel chromatin recruitment role for Dcc1”.
These are yes or no findings as the source states them, for the method shown. Some results given as binding are weak or reduced against the parent protein; the word gives no strength.

T1: Ctf18 C-terminus (residues 666-741) (S. cerevisiae) (UniProt P49956)
T1 sequence: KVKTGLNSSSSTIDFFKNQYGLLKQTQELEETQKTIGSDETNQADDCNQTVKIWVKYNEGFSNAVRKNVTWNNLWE

T2: Dcc1 (full length) (S. cerevisiae) (UniProt P25559)
T2 sequence: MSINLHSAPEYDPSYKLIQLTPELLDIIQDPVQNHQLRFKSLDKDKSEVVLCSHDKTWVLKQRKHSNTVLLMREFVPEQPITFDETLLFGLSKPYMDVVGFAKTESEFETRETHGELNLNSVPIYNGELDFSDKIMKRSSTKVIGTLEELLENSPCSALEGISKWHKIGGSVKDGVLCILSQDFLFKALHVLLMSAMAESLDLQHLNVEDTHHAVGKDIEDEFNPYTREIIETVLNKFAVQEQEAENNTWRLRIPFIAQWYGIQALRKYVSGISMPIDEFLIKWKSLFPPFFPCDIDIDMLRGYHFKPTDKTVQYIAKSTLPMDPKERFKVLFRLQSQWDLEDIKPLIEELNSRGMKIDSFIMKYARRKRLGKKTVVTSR

T3: Dcc1 with WH2 and WH3 deleted (S. cerevisiae) (UniProt P25559)
T3 sequence: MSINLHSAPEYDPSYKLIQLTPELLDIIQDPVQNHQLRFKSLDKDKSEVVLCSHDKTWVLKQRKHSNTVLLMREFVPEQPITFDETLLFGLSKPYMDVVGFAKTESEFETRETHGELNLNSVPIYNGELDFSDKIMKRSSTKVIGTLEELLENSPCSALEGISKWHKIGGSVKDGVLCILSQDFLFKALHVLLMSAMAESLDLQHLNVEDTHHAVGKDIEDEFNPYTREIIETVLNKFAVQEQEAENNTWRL

T4: Dcc1 with WH3 deleted (S. cerevisiae) (UniProt P25559)
T4 sequence: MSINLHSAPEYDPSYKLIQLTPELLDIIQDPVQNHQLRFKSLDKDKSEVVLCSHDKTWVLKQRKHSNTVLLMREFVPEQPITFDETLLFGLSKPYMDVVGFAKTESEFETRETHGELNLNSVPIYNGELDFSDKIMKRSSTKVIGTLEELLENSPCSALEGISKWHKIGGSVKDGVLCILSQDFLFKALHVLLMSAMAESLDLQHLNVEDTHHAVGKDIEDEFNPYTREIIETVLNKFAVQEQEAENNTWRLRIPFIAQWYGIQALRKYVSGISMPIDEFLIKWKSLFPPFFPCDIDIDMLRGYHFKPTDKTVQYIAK

T5: Dcc1-Ctf8 heterodimer (S. cerevisiae) (UniProt P25559+P38877)
T5 sequence 1: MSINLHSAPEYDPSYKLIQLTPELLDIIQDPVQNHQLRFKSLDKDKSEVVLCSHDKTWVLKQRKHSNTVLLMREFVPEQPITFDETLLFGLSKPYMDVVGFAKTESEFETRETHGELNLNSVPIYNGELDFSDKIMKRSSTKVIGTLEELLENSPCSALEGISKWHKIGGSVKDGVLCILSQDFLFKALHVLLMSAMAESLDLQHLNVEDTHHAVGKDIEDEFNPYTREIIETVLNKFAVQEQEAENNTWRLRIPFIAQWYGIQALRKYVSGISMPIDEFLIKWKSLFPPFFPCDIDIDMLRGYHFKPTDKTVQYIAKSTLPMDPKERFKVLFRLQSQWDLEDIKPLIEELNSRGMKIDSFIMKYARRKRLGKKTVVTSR
T5 sequence 2: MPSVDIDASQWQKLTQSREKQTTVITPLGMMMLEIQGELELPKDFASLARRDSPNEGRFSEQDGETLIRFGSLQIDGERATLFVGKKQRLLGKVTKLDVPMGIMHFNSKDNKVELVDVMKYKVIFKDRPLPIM


Columns and labels:
[1] = molecular target: T1, Ctf18 C-terminus (residues 666-741) (S. cerevisiae); assay: crystal structure; Ctf18^C-Dcc1-Ctf8 heterotrimer, co-expressed in E. coli and purified as a complex; crystals in 0.1 M Bis-Tris propane pH 6.3, 0.2 M NaBr, 17% PEG 3350, 20°C; 2.4 Å; both purified
[2] = molecular target: T2, Dcc1 (full length) (S. cerevisiae); assay: as above
[3] = molecular target: T3, Dcc1 with WH2 and WH3 deleted (S. cerevisiae); assay: co-purification of co-expressed recombinant complex (His-Trap, MonoQ, gel filtration; SDS-PAGE); Dcc1 deletions co-expressed with Ctf8 and His6-Ctf18^C; complexes purified in the same way as samples for crystallisation and shown on an SDS-PAGE gel
[4] = molecular target: T1, Ctf18 C-terminus (residues 666-741) (S. cerevisiae); assay: as above
[5] = molecular target: T4, Dcc1 with WH3 deleted (S. cerevisiae); assay: as above
[6] = molecular target: T5, Dcc1-Ctf8 heterodimer (S. cerevisiae); assay: crystal structure; Ctf18^C-Dcc1-Ctf8 heterotrimer, co-expressed in E. coli and purified as a complex; crystals in 0.1 M Bis-Tris propane pH 6.3, 0.2 M NaBr, 17% PEG 3350, 20°C; 2.4 Å; both purified

| Binder | binding [1] | binding [4] | also measured |
| --- | --- | --- | --- |
| Ctf18 C-terminus (residues 666-741) (domain or fragment, UniProt P49956 666-741) KVKTGLNSSSSTIDFFKNQYGLLKQTQELEETQKTIGSDETNQADDCNQTVKIWVKYNEGFSNAVRKNVTWNNLWE | – | – | binding [6]: binds |
| Dcc1 with WH3 deleted (domain or fragment, UniProt P25559 1-318) MSINLHSAPEYDPSYKLIQLTPELLDIIQDPVQNHQLRFKSLDKDKSEVVLCSHDKTWVLKQRKHSNTVLLMREFVPEQPITFDETLLFGLSKPYMDVVGFAKTESEFETRETHGELNLNSVPIYNGELDFSDKIMKRSSTKVIGTLEELLENSPCSALEGISKWHKIGGSVKDGVLCILSQDFLFKALHVLLMSAMAESLDLQHLNVEDTHHAVGKDIEDEFNPYTREIIETVLNKFAVQEQEAENNTWRLRIPFIAQWYGIQALRKYVSGISMPIDEFLIKWKSLFPPFFPCDIDIDMLRGYHFKPTDKTVQYIAK | – | binds | – |

Further lines, with some results ahead:

| binding [1] | binding [4] | Binder | also measured |
| --- | --- | --- | --- |
| binds | – | Dcc1 (full length) (protein, UniProt P25559 1-380) MSINLHSAPEYDPSYKLIQLTPELLDIIQDPVQNHQLRFKSLDKDKSEVVLCSHDKTWVLKQRKHSNTVLLMREFVPEQPITFDETLLFGLSKPYMDVVGFAKTESEFETRETHGELNLNSVPIYNGELDFSDKIMKRSSTKVIGTLEELLENSPCSALEGISKWHKIGGSVKDGVLCILSQDFLFKALHVLLMSAMAESLDLQHLNVEDTHHAVGKDIEDEFNPYTREIIETVLNKFAVQEQEAENNTWRLRIPFIAQWYGIQALRKYVSGISMPIDEFLIKWKSLFPPFFPCDIDIDMLRGYHFKPTDKTVQYIAKSTLPMDPKERFKVLFRLQSQWDLEDIKPLIEELNSRGMKIDSFIMKYARRKRLGKKTVVTSR | – |
| binds | binds | Ctf8 (full length) (protein, UniProt P38877 1-133) MPSVDIDASQWQKLTQSREKQTTVITPLGMMMLEIQGELELPKDFASLARRDSPNEGRFSEQDGETLIRFGSLQIDGERATLFVGKKQRLLGKVTKLDVPMGIMHFNSKDNKVELVDVMKYKVIFKDRPLPIM | binding [2]: binds; binding [3]: binds; binding [5]: binds |
| – | binds | Dcc1 with WH2 and WH3 deleted (domain or fragment, UniProt P25559 1-252) MSINLHSAPEYDPSYKLIQLTPELLDIIQDPVQNHQLRFKSLDKDKSEVVLCSHDKTWVLKQRKHSNTVLLMREFVPEQPITFDETLLFGLSKPYMDVVGFAKTESEFETRETHGELNLNSVPIYNGELDFSDKIMKRSSTKVIGTLEELLENSPCSALEGISKWHKIGGSVKDGVLCILSQDFLFKALHVLLMSAMAESLDLQHLNVEDTHHAVGKDIEDEFNPYTREIIETVLNKFAVQEQEAENNTWRL | – |
